In paper PMC10049297:
No constants are given. Whether binding was seen depends on the method and setting. In cells and extracts the contact can be indirect. Some entries that bind do so weakly or less than the wild type. Where a sequence is shown, tags or fusion partners need not be part of it.

By UniProt entry, the sequences of proteins in these tests, tags left out.
UniProt Q86WV6: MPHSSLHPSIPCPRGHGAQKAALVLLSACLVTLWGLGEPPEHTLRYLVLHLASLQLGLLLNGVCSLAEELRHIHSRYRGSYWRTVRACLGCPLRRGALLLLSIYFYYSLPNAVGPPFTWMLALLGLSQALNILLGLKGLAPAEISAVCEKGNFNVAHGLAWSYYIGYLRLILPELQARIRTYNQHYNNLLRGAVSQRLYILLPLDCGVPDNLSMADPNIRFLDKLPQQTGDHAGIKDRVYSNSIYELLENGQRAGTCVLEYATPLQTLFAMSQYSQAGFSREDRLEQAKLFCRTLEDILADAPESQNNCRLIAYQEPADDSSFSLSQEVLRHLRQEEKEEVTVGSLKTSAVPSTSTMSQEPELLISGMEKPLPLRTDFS
UniProt Q8N884: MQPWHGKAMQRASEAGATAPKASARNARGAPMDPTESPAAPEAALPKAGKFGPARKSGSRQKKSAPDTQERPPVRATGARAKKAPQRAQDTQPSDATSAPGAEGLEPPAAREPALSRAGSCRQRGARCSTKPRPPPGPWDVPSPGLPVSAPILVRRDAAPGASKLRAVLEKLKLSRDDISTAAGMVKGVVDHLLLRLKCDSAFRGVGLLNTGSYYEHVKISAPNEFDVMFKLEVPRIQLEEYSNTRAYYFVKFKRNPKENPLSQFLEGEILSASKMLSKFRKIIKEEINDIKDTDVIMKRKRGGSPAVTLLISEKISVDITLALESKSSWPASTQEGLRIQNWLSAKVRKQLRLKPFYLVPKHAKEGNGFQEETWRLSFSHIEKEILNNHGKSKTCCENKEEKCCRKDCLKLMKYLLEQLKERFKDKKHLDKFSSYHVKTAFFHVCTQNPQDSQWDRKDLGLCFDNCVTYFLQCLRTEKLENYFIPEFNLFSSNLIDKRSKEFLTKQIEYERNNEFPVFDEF
UniProt P42224: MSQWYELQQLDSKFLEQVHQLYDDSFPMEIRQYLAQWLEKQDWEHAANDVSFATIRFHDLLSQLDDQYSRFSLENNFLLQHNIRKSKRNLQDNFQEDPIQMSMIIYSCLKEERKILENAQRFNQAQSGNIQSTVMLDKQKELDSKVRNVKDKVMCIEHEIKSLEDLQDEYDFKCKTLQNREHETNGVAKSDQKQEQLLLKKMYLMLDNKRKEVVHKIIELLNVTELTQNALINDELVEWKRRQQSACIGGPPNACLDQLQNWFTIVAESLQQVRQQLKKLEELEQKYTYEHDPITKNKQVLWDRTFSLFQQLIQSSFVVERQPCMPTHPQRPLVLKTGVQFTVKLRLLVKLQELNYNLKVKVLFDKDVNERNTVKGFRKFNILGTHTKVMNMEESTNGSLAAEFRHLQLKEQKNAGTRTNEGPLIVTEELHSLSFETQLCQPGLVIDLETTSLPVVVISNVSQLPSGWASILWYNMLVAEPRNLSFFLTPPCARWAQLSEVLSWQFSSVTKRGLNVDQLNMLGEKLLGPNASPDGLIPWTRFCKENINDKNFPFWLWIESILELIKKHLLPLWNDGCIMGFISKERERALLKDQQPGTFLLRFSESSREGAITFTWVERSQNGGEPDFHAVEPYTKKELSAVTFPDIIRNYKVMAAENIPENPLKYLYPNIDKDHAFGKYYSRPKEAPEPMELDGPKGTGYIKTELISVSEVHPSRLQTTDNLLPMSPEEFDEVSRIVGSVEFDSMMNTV
UniProt P52630: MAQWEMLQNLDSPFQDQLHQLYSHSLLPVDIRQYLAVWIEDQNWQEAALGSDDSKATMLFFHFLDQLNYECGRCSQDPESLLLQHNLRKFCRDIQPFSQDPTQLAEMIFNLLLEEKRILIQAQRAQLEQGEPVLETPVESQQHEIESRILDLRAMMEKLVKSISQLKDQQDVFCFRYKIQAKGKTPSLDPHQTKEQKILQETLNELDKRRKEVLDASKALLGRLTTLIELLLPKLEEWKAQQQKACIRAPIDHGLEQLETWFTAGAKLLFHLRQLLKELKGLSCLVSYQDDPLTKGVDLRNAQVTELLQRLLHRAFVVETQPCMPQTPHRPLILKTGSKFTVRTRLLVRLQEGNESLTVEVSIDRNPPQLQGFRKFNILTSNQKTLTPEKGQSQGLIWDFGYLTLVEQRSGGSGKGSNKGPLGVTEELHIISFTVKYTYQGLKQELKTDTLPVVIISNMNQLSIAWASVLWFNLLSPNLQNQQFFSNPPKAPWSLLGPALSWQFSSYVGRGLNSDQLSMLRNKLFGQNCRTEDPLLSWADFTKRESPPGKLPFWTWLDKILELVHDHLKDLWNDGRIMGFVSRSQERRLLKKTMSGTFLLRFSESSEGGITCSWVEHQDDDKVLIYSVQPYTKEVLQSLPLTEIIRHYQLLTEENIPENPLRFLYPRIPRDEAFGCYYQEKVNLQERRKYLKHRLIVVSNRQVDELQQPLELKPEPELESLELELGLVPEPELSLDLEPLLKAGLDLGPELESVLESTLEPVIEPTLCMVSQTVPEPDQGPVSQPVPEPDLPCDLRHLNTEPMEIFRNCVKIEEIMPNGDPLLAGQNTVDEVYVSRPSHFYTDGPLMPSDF

Tests used:
[1] = biological target: T1, HA-SerpinA5 (human) (UniProt P05154); assay: co-IP; HEK293T cells transfected with HA-SerpinA5 or empty vector for 36 h; lysates immunoprecipitated with anti-HA tag antibody; blots with antibodies against endogenous STAT1, STAT2, IRF9; wash buffer 50 mM Tris pH 7.4, 500 mM NaCl, 0.1% NP-40, 1 mM EDTA
T1 sequence: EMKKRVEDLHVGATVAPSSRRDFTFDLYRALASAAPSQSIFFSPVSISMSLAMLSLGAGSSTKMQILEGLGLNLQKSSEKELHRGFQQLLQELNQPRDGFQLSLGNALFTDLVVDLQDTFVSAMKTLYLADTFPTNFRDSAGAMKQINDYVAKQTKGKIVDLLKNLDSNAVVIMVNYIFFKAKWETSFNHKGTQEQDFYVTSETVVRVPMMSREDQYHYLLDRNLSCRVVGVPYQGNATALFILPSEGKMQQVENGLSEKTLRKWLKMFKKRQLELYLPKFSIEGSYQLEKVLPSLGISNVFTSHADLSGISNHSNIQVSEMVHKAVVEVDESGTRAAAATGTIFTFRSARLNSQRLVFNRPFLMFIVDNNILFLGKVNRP

[2] = biological target: T2, HA-tagged IRF3 (UniProt Q14653); assay: co-IP; HEK-293T cells co-transfected with FLAG-SerpinA5 and HA-tagged cGAS, STING, TBK1, IRF3 or IRF7 for 36 h; lysates (NP40 lysis buffer) immunoprecipitated with anti-HA antibody, Western blot; wash buffer 50 mM Tris pH 7.4, 500 mM NaCl, 0.1% NP-40, 1 mM EDTA
T2 sequence: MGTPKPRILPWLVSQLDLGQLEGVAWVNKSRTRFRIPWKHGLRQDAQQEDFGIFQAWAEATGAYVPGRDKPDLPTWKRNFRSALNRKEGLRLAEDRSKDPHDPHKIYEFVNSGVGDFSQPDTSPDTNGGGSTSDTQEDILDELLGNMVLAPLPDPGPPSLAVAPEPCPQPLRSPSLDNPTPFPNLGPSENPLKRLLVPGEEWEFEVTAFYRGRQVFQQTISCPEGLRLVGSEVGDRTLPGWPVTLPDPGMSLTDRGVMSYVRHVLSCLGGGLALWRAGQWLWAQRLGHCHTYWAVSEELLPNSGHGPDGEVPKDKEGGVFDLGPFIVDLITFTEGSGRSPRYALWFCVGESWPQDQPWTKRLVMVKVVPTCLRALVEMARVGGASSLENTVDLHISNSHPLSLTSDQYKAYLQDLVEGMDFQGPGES

[3] = biological target: T3, HA-tagged IRF7 (UniProt Q92985); assay: as above
T3 sequence: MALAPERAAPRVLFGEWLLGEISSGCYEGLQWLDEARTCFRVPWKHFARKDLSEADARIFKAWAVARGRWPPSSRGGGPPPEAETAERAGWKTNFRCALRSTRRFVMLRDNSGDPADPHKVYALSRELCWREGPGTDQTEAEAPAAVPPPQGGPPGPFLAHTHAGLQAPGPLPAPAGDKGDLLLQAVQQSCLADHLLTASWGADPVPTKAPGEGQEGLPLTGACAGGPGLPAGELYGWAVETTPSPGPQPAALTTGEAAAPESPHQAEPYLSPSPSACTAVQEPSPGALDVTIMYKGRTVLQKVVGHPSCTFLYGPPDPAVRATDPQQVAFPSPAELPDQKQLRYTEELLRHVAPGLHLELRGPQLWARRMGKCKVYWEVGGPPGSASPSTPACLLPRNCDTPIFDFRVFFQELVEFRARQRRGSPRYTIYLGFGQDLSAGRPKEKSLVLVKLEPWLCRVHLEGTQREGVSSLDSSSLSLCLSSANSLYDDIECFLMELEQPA

[4] = biological target: HA-tagged STING (UniProt Q86WV6); assay: as above
[5] = biological target: T4, HA-tagged TBK1 (UniProt Q9UHD2); assay: as above
T4 sequence: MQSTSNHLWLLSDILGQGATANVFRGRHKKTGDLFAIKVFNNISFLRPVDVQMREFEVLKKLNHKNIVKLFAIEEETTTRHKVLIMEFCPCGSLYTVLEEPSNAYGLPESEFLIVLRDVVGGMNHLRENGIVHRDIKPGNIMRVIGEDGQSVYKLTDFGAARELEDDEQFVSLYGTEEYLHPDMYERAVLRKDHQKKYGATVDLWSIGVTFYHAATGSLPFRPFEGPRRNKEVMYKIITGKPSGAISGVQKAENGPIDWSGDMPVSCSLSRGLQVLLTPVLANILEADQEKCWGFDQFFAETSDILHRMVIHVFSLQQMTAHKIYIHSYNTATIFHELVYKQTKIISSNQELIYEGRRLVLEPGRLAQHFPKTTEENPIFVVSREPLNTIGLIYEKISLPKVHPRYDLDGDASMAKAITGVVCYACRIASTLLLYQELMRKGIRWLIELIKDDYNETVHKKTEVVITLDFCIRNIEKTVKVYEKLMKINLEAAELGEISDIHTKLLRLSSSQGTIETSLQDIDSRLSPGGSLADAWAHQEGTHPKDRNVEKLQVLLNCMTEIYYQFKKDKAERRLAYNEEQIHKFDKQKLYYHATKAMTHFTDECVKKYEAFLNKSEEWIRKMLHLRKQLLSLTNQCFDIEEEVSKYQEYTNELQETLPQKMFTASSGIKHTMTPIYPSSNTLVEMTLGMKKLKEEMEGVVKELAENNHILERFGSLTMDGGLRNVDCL

[6] = biological target: HA-tagged cGAS (UniProt Q8N884); assay: as above

With STAT1 (from UniProt P42224 1-750) the binding [1] was “binds”.

STAT2 (from UniProt P52630 1-851) was tested, and the binding [1] was “no binding”.

B1: FLAG-SerpinA5 (human serpin peptidase inhibitor clade A member 5) (protein, UniProt P05154 26-406)
chain: EMKKRVEDLHVGATVAPSSRRDFTFDLYRALASAAPSQSIFFSPVSISMSLAMLSLGAGSSTKMQILEGLGLNLQKSSEKELHRGFQQLLQELNQPRDGFQLSLGNALFTDLVVDLQDTFVSAMKTLYLADTFPTNFRDSAGAMKQINDYVAKQTKGKIVDLLKNLDSNAVVIMVNYIFFKAKWETSFNHKGTQEQDFYVTSETVVRVPMMSREDQYHYLLDRNLSCRVVGVPYQGNATALFILPSEGKMQQVENGLSEKTLRKWLKMFKKRQLELYLPKFSIEGSYQLEKVLPSLGISNVFTSHADLSGISNHSNIQVSEMVHKAVVEVDESGTRAAAATGTIFTFRSARLNSQRLVFNRPFLMFIVDNNILFLGKVNRP
With B1 the binding [2] was “no binding”, the binding [3] was “no binding” and the binding [4] was “no binding”. The binding [5] was “no binding” and the binding [6] was “no binding”.

B2: IRF9 (protein, UniProt Q00978 1-393)
chain: MASGRARCTRKLRNWVVEQVESGQFPGVCWDDTAKTMFRIPWKHAGKQDFREDQDAAFFKAWAIFKGKYKEGDTGGPAVWKTRLRCALNKSSEFKEVPERGRMDVAEPYKVYQLLPPGIVSGQPGTQKVPSKRQHSSVSSERKEEEDAMQNCTLSPSVLQDSLNNEEEGASGGAVHSDIGSSSSSSSPEPQEVTDTTEAPFQGDQRSLEFLLPPEPDYSLLLTFIYNGRVVGEAQVQSLDCRLVAEPSGSESSMEQVLFPKPGPLEPTQRLLSQLERGILVASNPRGLFVQRLCPIPISWNAPQAPPGPGPHLLPSNECVELFRTAYFCRDLVRYFQGLGPPPKFQVTLNFWEESHGSSHTPQNLITVKMEQAFARYLLEQTPEQQAAILSLV
B2 was tested, and the binding [1] was “no binding”.
